This experiment addresses AR1FLAG (human) (UniProt P17181). Briefly: phage ELISA on biotinylated AR1FLAG, positive clones chosen. On the technique in general: ELISA stands for enzyme-linked immunosorbent assay.

Amino acid sequences for entries named in this document (tags omitted). Residues count along the entry.
UniProt P17181, residues 28-436: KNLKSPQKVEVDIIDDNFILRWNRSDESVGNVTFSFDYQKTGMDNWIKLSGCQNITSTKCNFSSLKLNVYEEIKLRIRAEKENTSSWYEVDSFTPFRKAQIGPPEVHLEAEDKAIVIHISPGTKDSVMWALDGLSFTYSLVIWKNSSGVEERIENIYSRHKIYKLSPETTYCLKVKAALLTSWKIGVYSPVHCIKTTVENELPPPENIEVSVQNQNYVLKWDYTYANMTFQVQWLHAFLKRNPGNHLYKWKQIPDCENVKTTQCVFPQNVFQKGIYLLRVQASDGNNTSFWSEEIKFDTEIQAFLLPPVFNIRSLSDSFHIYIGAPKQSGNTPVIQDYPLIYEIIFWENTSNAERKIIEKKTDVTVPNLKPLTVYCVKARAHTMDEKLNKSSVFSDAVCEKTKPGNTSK

No constants are given. Whether binding was seen depends on the method and setting. Some results given as binding are weak or reduced against the parent protein; the word gives no strength.

The text below walks through data of JP2009292822A.

B1: AR1-24 (scFv, V domains shown)
VH: QVQLQQSGPELEKPGASVKISCKASGYSFSDYNMNWVKQSNGKSLEWIGNIDPYNGDTNYNQKFKGKATLTLDKSSSTAYMQLKSLTSEDSAVYFCARSRGWLLPFAYWGQGTLVTVSA
VL: DILMTQSQKFMSTSVGDRVSVTCKASQNVGINVAWYQQKPGQSPKALIYSASYRYSGVPDRFTGSGSGTDFTLTISNVQSEDLAEYFCQQYNSYPLTFGGGTKLEIKR
Consider B1, for which the binding entry was “binds”.

B2: AR1-41 (scFv, V domains shown)
VH: QVQLKQSGAELVRPGASVRLSCKASGYTFTFYWINWIKQRPEQGLEWIGRIDPYDSETRYNQKFKDKAILTVDKYSSTAYMQLSSLTSEDSAVYYCAKGVYDGHWFFDVWGAGTSVTVSS
VL: DIVMTQSHKFMSTSVGDRVSITCKASQDVSTAVAWYQQKPGQSPKLLIYSASYRYTGVPARFSGSGSGTDFTFTISSVQTEDLAVYYCQQHYRTPPTFGGGTKLELKR
Consider B2, for which the binding result is “binds”.
